Reference: patent publication US20180282367 (published 2018)
Values joined by “and” are separate entries in the source; they are usually repeats but may differ in a detail not shown here. Equal entries are not always repeated.

Assay: general procedure: Fmoc solid-phase peptide synthesis; 2-CTC resin (Examples 1 and 2); carboxylic resin (comparative Example 3); DIC/HOBt

Substance: C^4,6,S^1-Cyclo(N-(3-sulfanylpropanoyl)-D-tryptophyl-L-isoleucyl-L-alloisoleucyl-L-asparaginyl-L-2-aminobutanoyl-N-methyl-L-ornithinol)
- crude HPLC purity (cyclisation step, run 1): 85.24%
- crude HPLC purity (cyclisation step, run 2): 86.4%
- crude HPLC purity (whole synthesis, run 1): 11.8%
- crude HPLC purity (whole synthesis, run 2): 1.8%
- crude HPLC purity (whole synthesis, run 3): 10.4%
- crude yield (whole synthesis, on resin loading, run 1): around 90%
- crude yield (whole synthesis, on resin loading, run 2): 8.3% and 13.3%
- crude yield (whole synthesis, run 1): 92.4%
- crude yield (whole synthesis, run 2): 15.1%
